Source: PMC12672999
No constants are given. Whether binding was seen depends on the method and setting. In cells and extracts the contact can be indirect. Some entries that bind do so weakly or less than the wild type. Values belong to the molecule of their own block, whether it stands above or below them.

Sequences of proteins named here, by UniProt entry; tags and fusion partners are left off. Residues count along the entry.
UniProt Q3UMR5, residues 50-350: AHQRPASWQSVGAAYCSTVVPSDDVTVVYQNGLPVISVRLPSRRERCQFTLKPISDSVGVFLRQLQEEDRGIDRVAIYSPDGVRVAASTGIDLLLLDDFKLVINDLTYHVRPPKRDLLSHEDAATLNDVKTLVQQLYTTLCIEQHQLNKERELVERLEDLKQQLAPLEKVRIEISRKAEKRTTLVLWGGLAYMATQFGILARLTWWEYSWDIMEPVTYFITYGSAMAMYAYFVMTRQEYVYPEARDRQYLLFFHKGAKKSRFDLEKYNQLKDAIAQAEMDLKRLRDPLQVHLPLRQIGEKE

Columns and labels:
[1] = target: T1, medium-chain acyl-CoA dehydrogenase (ACADM) (not stated (endogenous in VSMCs; mouse VSMCs and rat VSMCs were cultured)) (UniProt P45952); assay: co-IP; endogenous proteins from VSMCs lysed in RIPA buffer with 1 mM PMSF; antibodies on A/G magnetic beads; IP: ACADM, IB: MCU and IP: MCU, IB: ACADM; cells treated with cholesterol, with or without MCU inhibitors (Ru360, mitoxantrone)
T1 sequence: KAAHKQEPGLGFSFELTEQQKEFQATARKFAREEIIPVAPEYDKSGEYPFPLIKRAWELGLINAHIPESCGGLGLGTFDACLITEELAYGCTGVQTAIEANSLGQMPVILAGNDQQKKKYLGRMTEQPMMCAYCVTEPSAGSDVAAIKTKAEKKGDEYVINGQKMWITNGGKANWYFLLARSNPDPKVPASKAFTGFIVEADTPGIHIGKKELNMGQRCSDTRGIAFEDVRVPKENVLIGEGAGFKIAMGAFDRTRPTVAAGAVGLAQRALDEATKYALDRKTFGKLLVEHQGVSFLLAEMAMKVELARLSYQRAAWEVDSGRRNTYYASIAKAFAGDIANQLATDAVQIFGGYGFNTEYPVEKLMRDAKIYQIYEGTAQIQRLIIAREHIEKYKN

[2] = target: mitochondrial calcium uniporter (MCU) (not stated (endogenous in VSMCs; mouse VSMCs and rat VSMCs were cultured)) (UniProt Q3UMR5); assay: as above
[3] = target: mitochondrial calcium uniporter (MCU) (not stated (endogenous in VSMCs; mouse VSMCs and rat VSMCs were cultured)) (UniProt Q3UMR5); assay: proximity ligation; Duolink In Situ Red Starter Kit Mouse/Rabbit on fixed, permeabilised VSMCs; antibody ACADM (mouse), antibody MCU (rabbit); cells with or without cholesterol; confocal microscopy, Image J

Molecule: mitochondrial calcium uniporter (MCU) (from UniProt Q3UMR5 50-350)
binding [1]: binds

binding [3]: binds
B1: medium-chain acyl-CoA dehydrogenase (ACADM) (protein, UniProt P45952 26-421)
chain: T1 sequence
binding [2]: binds
